Experimental data reported in patent US9155715B2, “Transdermal composition comprising tolterodine” (SK Chemicals Co., Ltd., priority 2009, dated 2015).
Some results were stated once for a whole list of compounds, not compound by compound. At least one structure is not confirmed: it was looked up by name or label, or the drawing left a doubt.

Assay: Screening of antioxidant (tolterodine decomposition in H2O2 solution)
Format: physicochemical
Settings: tolterodine in ethanol/0.3% H2O2 with 10 mg of the named antioxidant, 25° C., 100 rpm, 2.5 days
Experimental: [Analytical Method] • Test solution: tolterodine (−0.5 mg/mL) • Mobile phase: 45:55 mixture solution of ammonium dihydrogen phosphate and methanol, pH 7.0 • HPLC condition: detector 220 nm, column ODS3 C-18
Tolterodine free base (500 mg) was mixed with ethanol (50 mL) in a 100 mL flask and 0.3% H2O2 solution was added thereto to a final volume of 100 mL.
Antioxidant, weighed 10 mg each, was added into two glass bottles. One bottle contained tolterodine and the antioxidant, while the other bottle contained only the antioxidant, which was prepared to exclude the peaks resulting from the decomposition of the antioxidant by H2O2.
Tolterodine solution (2 mL) or a 1:1 mixture solution of 0.3% H2O2 aqueous solution and ethanol (2 mL) were added to the two glass bottles containing the antioxidant. The bottles were agitated at 100 rpm and 25° C. for 2.5 days.

For `N[C@@H](CCC(=O)O)C(=O)O` [l-Glutamic acid], the “Total decomposed substances (peak area ratio of decomposed substances of tolterodine)” value (listed as l-glutamic acid) was “less than 2%”.
For `O=C(O)CC(O)(CC(=O)O)C(=O)O` [Citric acid], the “Total decomposed substances (peak area ratio of decomposed substances of tolterodine)” value (listed as citric acid) was “less than 2%”.
With `CCCCCCCCCCCCCCCC(=O)OC[C@H](O)[C@H]1OC(=O)C(O)=C1O` [l-Ascorbic acid 6-palmitate] the “Total decomposed substances (peak area ratio of decomposed substances of tolterodine)” value (listed as 1-ascorbic acid 6-palmitate) was “less than 2%”.
With `O=C1O[C@H]([C@@H](O)CO)C(O)=C1O` [l-Ascorbic acid] the “Total decomposed substances (peak area ratio of decomposed substances of tolterodine)” value (listed as 1-ascorbic acid) was “less than 2%”.
For `O=C(O)CC(O)C(=O)O` (racemic) [d,l-Malic acid], the “Total decomposed substances (peak area ratio of decomposed substances of tolterodine)” value (listed as d,l-malic acid) was “less than 2%”.
